“Also recorded” adds a separate entry of the source. For at least one compound, name, drawing or mass did not settle the structure.
Legend:
[1] = test system: primary osteoblasts; test: Primary osteoblast culture: proliferation, apoptosis and osteogenic differentiation with Dex; type: cell-based, mouse
[2] = test system: Mouse embryonic fibroblasts; test: Functional screening assay, automated fluorescent microscopy of ALP activity and cytokines; type: cell-based; conditions: osteogenic differentiated MEFs, 1 μM dexamethasone

C[C@@H]1C[C@H]2[C@@H]3CCC4=CC(=O)C=C[C@]4(C)[C@@]3(F)[C@@H](O)C[C@]2(C)[C@@]1(O)C(=O)CO [Dex, dexamethasone]
postconfluential proliferation (Ki-67) ([1]; GR^dim and GR^null cells): entirely unaffected | postconfluential proliferation (Ki-67) ([1]; wild type cells, after 24 hours until 96 hours): reduction of proliferation | ALP activity / ALP positive cells [2]: strongly reduces; also recorded: potently reducing ALP activity

From patent US8906858B2, “Method for the prophylactic or therapeutic treatment of glucocorticoid-induced osteoporosis” (Fritz-Lipmann-Institut E. V. Leibniz-Institut Fuer …, priority 2010, dated 2014)
